Reference: PMC12170873, “The Spc105/Kre28 complex promotes mitotic error correction by outer kinetochore recruitment of Ipl1/Sli15” (The EMBO Journal, 2025)
These are yes or no findings as the source states them, for the method shown. Binding seen in cells or lysates may run through a third protein. A yes stands for co-enrichment or nearness to the bait. Other partners may have been found. No binding means not detected with the bait. Where a sequence is shown, tags or fusion partners need not be part of it.

T1: Spc105-TurboID (S. cerevisiae) (UniProt P53148)
T1 sequence: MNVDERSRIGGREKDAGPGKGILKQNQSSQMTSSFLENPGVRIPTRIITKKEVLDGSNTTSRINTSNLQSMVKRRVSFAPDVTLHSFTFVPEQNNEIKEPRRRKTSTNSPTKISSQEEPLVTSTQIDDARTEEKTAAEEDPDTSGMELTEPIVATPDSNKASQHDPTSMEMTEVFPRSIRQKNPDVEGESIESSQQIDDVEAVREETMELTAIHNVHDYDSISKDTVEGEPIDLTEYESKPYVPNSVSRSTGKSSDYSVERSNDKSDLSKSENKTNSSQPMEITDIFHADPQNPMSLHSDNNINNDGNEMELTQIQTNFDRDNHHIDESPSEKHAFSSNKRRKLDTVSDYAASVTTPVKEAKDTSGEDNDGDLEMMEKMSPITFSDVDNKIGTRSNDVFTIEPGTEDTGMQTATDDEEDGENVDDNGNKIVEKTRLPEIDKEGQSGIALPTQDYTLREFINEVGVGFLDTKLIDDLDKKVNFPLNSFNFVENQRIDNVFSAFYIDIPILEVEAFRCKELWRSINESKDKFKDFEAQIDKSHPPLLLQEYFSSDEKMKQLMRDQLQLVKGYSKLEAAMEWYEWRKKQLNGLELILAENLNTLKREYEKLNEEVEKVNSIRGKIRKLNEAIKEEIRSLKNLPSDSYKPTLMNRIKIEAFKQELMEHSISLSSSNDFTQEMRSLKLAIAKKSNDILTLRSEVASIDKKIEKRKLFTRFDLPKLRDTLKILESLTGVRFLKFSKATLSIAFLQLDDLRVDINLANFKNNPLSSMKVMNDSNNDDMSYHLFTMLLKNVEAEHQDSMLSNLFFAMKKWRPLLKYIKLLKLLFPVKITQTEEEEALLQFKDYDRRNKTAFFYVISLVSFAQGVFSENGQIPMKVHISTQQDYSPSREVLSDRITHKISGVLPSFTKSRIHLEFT

B1: Sli15-6xFlag (protein, UniProt P38283 1-698)
chain: MDWAIKAARKKTQRKPGSTRSIIETLDDLNNLTTDAHSEINQRLYESSEWLRNNVYMNTLKYEDKKMEESLISPENTHNKMDVEFPKMKGEYELSNSQNDAAKDVTKTPRNGLHNDKSITPKSLRRKEVTEGMNRFSIHDTNKSPVEPLNSVKVDANESEKSSPWSPYKVEKVLRESSKTSESPINTKRFDNQTWAAKEEMENEPILQALKKAESVKVKPPPNSGIARSQRRSNMFVPLPNKDPLIIQHIPPTKSSGSIPKVRTVKESPIAFKKKSTINSPAIRAVENSDTAGSTKASSVFDRLSSIPTKSFENKISRGNVGHKYSSSSIDLTGSPMKKVSQKFKSINSTDTDMQEALRDIFSVKNKITKNNSPKGKNSRKSSIPRFDKTSLKLTTHKKLAIIAEQKKKSKHSSDVHKTGSRPHSISPTKISVDSSSPSKEVKNYYQSPVRGYLRPTKASISPNKNKNLTTSQTPHRLKIKEKTLRKLSPNIADISKPESRKSKNYRLTNLQLLPPAEAERDDLKKKFDKRLSGIMRSQQEHHRRKQEKQKRMSHLEQDLKKQTSFSNDYKDIRLKESLAPFDNHVRDTINKNTAFSTDNILATINTVDHREIIGNVTPKIASVNDSLPEINTDSEDEASVTLAAWAKSPYLQEQLIRQQDINPQTIFGPIPPLHTDEIFPNPRLNRLKPRQIVPKRS
B2: Flag-tagged Cin8 (nuclear kinesin-5 motor protein) (protein, UniProt P27895 1-1000)
chain: MPAENQNTGQDRSSNSISKNGNSQVGCHTVPNEELNITVAVRCRGRNEREISMKSSVVVNVPDITGSKEISINTTGDTGITAQMNAKRYTVDKVFGPGASQDLIFDEVAGPLFQDFIKGYNCTVLVYGMTSTGKTYTMTGDEKLYNGELSDAAGIIPRVLLKLFDTLELQQNDYVVKCSFIELYNEELKDLLDSNSNGSSNTGFDGQFMKKLRIFDSSTANNTTSNSASSSRSNSRNSSPRSLNDLTPKAALLRKRLRTKSLPNTIKQQYQQQQAVNSRNNSSSNSGSTTNNASSNTNTNNGQRSSMAPNDQTNGIYIQNLQEFHITNAMEGLNLLQKGLKHRQVASTKMNDFSSRSHTIFTITLYKKHQDELFRISKMNLVDLAGSENINRSGALNQRAKEAGSINQSLLTLGRVINALVDKSGHIPFRESKLTRLLQDSLGGNTKTALIATISPAKVTSEETCSTLEYASKAKNIKNKPQLGSFIMKDILVKNITMELAKIKSDLLSTKSKEGIYMSQDHYKNLNSDLESYKNEVQECKREIESLTSKNALLVKDKLKSKETIQSQNCQIESLKTTIDHLRAQLDKQHKTEIEISDFNNKLQKLTEVMQMALHDYKKRELDLNQKFEMHITKEIKKLKSTLFLQLNTMQQESILQETNIQPNLDMIKNEVLTLMRTMQEKAELMYKDCVKKILNESPKFFNVVIEKIDIIRVDFQKFYKNIAENLSDISEENNNMKQYLKNHFFKNNHQELLNRHVDSTYENIEKRTNEFVENFKKVLNDHLDENKKLIMQNLTTATSAVIDQEMDLFEPKRVKWENSFDLINDCDSMNNEFYNSMAATLSQIKSTVDTSSNSMNESISVMKGQVEESENAISLLKNNTKFNDQFEQLINKHNMLKDNIKNSITSTHSHITNVDDIYNTIENIMKNYGNKENATKDEMIENILKEIPNLSKKMPLRLSNINSNSVQSVISPKKHAIEDENKSSENVDNEGSRKMLKIE

Target: T1, Spc105-TurboID (S. cerevisiae)
Experiment: proximity labelling; in vivo biotinylation by Spc105-TurboID in yeast; streptavidin-sepharose purification from lysates with SDS washes; anti-Flag blot of Flag-tagged candidates

Binder | binding
B1 | binds
B2 | no binding
